Results reported in PubChem BioAssay AID1259415 (National Center for Advancing Translational Sciences (NCATS), 2018).
Screen size: about 410,000 compounds; about 18,000 (4.4%) were called active. Inconclusive means that the source gave no clear call. Such entries were picked first, then a sample of the others. No stated cut-off is given here; in the data, active means activity change below about -60%; inconclusive means no clear call, values can overlap the other calls; inactive means above about -39%.

Test: qHTS Assay for inhibitors of the human cytomegalovirus (HCMV)
Details: HFF cells, HCMV-luciferase reporter, 72 h; at 57.5 µM; active compounds read low
Procedure, shortened: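 After 16 h attachment at 37C, HFF cells received test compound and HCMV-luciferase (1 PFU/cell); reporter luminescence read 72 h later, data normalized against buffer-only and known inhibitor Salinomycin.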
On the % scale 0 is the no-effect control and ±100 the full control effect.

Row | Structure (SMILES) | activity change, negative = inhibition
1 | COc1ccc(S(=O)(=O)n2nc(C)c(S(=O)(=O)N3CCCCC3)c2C)cc1 | inactive: 3.03%
2 | C[C@@H](CN=[N+]=[N-])CN1CC[C@H](C(C)(C)C)CCC1=O | inconclusive: -42.1%
3 | c1ccc(OCc2noc(CN3CCC(C4CCCCC4)C3)n2)cc1 (centres undefined) | active: -61.5%
4 | CCCCOCCCNC(=O)c1ccccc1OCC | inconclusive: -49.7%
5 | COc1ccc(C2(c3ccc(OC)cc3)NC(=O)N(CC(=O)Nc3ccccc3C(F)(F)F)C2=O)cc1 | inactive: 17.5%
6 | Cc1ccc(C)c(N2C(=O)N(Cc3c(F)cccc3Cl)c3ccccc3S2(=O)=O)c1 | inconclusive: -52.4%
7 | Cc1ccc(C#N)c(SCc2ccccc2[N+](=O)[O-])n1 | inconclusive: -52.2%
8 | CCn1c2c(c(=N)c3c1CCC3)CCC2 | active: -83.9%
9 | CC(C)C(C)NC(=O)CSc1nc2scc(-c3ccco3)c2c(=O)n1-c1ccccc1 (centres undefined) | active: -63.5%
10 | CCc1nc(SCC(=O)N2c3ccccc3Sc3ccccc32)c2ccccc2n1 | inconclusive: -46.4%
11 | COC(=O)c1cc(NC(=O)Nc2ccc3snnc3c2)cc(C(=O)OC)c1 | inactive: 0.269%
12 | Cc1ccc(/C=N/NC(=O)c2ccccc2OCc2cccc(Br)c2)o1 | inconclusive: -57.6%
13 | Cc1ccc(C(=O)NCCc2c[nH]c3ccccc23)c(C)c1 | inactive: 174%
14 | CCOC(=O)c1sc(NC(=O)C2CC(=O)N(c3ccccc3C)C2)nc1C (centres undefined) | inactive: -1.8%
15 | CN(CC(=O)Nc1cccc(S(=O)(=O)N2CCCC2)c1)CC(=O)Nc1ccc(Cl)c(C(F)(F)F)c1 | active: -64.4%
16 | Cc1cc(NC(=O)CSc2ccc3nnc(-c4cccnc4)n3n2)no1 | inconclusive: -43%
17 | CCOc1cc(CNC)ccc1OCC(=O)NC(C)(C)C | inconclusive: -50.4%
18 | CCC(C)NCCOCCOc1ccc(Cl)cc1Br (centres undefined) | inactive: -22.5%
19 | CC(C)N1CCN(Cc2ccc3c(c2)Cc2ccccc2-3)CC1CCO (centres undefined) | inconclusive: -51.1%
20 | COC(=O)c1ccc(C(=O)Nc2ccc3nc(-c4ccncc4)[nH]c3c2)cc1 | inconclusive: -43.9%
21 | CC(Cl)c1cc(-c2ncc(C(F)(F)F)cc2Cl)no1 (centres undefined) | inconclusive: -47.6%
22 | CN1/C(=C/C(=O)CSc2ccccc2C(=O)O)C(C)(C)c2ccccc21 | inactive: 20.3%

A draw from above in order of molecular weight, falling:
Row | Structure (SMILES) | activity change, negative = inhibition
18 | CCC(C)NCCOCCOc1ccc(Cl)cc1Br (centres undefined) | inactive: -22.5%
4 | CCCCOCCCNC(=O)c1ccccc1OCC | inconclusive: -49.7%
8 | CCn1c2c(c(=N)c3c1CCC3)CCC2 | active: -83.9%

(cont.)

Row | Structure (SMILES) | activity change, negative = inhibition
23 | CCCn1cc(S(=O)(=O)c2cccc(Cl)c2)c(=O)c2cc(F)c(N3CCOCC3)cc21 | inconclusive: -46.7%
24 | Cc1csc(NC(=O)Cc2nn(C)c(=O)c3ccccc23)n1 | inconclusive: -46.2%
25 | CC(=O)c1ccc(NC(=S)NC(=O)Cc2ccc(Cl)cc2)cc1 | inactive: -39.6%
26 | CCN(CC(=O)Nc1ccccc1C(F)(F)F)C(=O)CN1C(=O)NC2(CCCC2)C1=O | inactive: -11.2%
27 | Cc1nc(NC(=O)CSc2nccn2C)sc1C(=O)N(C)C | inactive: 25.1%
28 | O=C1CCC[C@@H]2[C@H](Cc3ccccc3)[C@@H](O)C[C@@H]3CCN1[C@@H]32 | inactive: -17.1%
29 | CC(=O)OCC1=C(C(=O)O)N2C(=O)C(NC(=O)c3ccc(F)cc3)C2SC1 (centres undefined) | inconclusive: -40.8%
30 | CC1CCCCC1NC(=O)Cn1cccc1C(=O)c1ccccc1 (centres undefined) | inactive: -24.4%
31 | FC(F)(F)c1ccccc1-n1c(-c2cnccn2)n[nH]c1=S | inactive: 8.82%
32 | CCOC(=O)c1c(C)n(-c2ccccc2)c2ccc(O)cc12 | inconclusive: -40.5%
33 | O=C(c1ccncc1)c1nccn1-c1ccccn1 | inactive: 41.4%
34 | COCCNC(=O)C1(C)CCCN(C(=O)c2cccc(OC(F)(F)F)c2)C1 (centres undefined) | inactive: -31.2%
35 | COc1ccc(C2=C/C(=C\c3ccc(OC(C)=O)cc3)C(=O)O2)cc1 | inactive: 23.7%
36 | COc1ncccc1-c1cc2nc(NCCNC(C)=O)n(C)c(=O)c2s1 | inactive: 9.95%
37 | CCOc1ccc(NC(=O)CN2CCC(n3cnc4cc(F)ccc43)CC2)cc1 | inconclusive: -48.8%
38 | O=[N+]([O-])c1ccc2[nH]c(O)c(N=NC(=S)NCC3CCCO3)c2c1 (centres undefined) | inactive: 39.7%
39 | CCc1ccc(NC(=O)CC(c2cc(OC)c(OC)c(OC)c2)N2Cc3ccccc3C2=O)cc1 (centres undefined) | inactive: -0.658%
40 | CN(C)c1cc(-c2ccc(Cl)cc2Cl)oc(=O)c1Cl | inconclusive: -55.8%
41 | CCCN(CCC)CCNC(=O)Cn1cnc2sc(C)c(S(=O)(=O)N3CCC(C)CC3)c2c1=O | inactive: 3.59%
42 | COc1ccc(C(=O)NCCn2cc(SCc3cccc(F)c3)c3ccccc32)cc1OC | inconclusive: -46.2%
43 | Cc1nnc(SCC(=O)NC(C)(C)C)n1NCc1c(F)cccc1Cl | inconclusive: -46%
44 | c1ccc2c(c1)nc1n2CCN1CCN1CCCC1 | inconclusive: -46.5%
